In this experiment the target is Flag-PCNA (UniProt P12004). The experiment can be described thus: co-IP; lysate of transfected HEK293/293T cells on anti-FLAG M2 agarose beads, 4°C for 4 h, eluted with 3 x Flag peptide, immunoblot; cells treated with or without 10 μM FEN1i (LNT-1) for 16 h. In general terms: Immunoblotting shows a protein as a band on a membrane.

Amino acid sequences for entries named in this document (tags omitted).
UniProt P12004: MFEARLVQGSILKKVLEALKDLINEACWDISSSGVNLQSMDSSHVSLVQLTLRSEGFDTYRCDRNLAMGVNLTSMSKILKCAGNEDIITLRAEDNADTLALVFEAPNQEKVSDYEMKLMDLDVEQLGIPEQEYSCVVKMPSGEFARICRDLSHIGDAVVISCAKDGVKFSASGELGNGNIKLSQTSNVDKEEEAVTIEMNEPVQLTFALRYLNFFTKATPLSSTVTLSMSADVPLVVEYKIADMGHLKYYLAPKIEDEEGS

This is an account of results in publication PMC13202174.

No constants are given. Whether binding was seen depends on the method and setting. Binding seen in cells or lysates may run through a third protein. Some results given as binding are weak or reduced against the parent protein; the word gives no strength.

B1: XPF (protein, UniProt Q92889 1-916)
chain: MESGQPARRIAMAPLLEYERQLVLELLDTDGLVVCARGLGADRLLYHFLQLHCHPACLVLVLNTQPAEEEYFINQLKIEGVEHLPRRVTNEITSNSRYEVYTQGGVIFATSRILVVDFLTDRIPSDLITGILVYRAHRIIESCQEAFILRLFRQKNKRGFIKAFTDNAVAFDTGFCHVERVMRNLFVRKLYLWPRFHVAVNSFLEQHKPEVVEIHVSMTPTMLAIQTAILDILNACLKELKCHNPSLEVEDLSLENAIGKPFDKTIRHYLDPLWHQLGAKTKSLVQDLKILRTLLQYLSQYDCVTFLNLLESLRATEKAFGQNSGWLFLDSSTSMFINARARVYHLPDAKMSKKEKISEKMEIKEGEETKKELVLESNPKWEALTEVLKEIEAENKESEALGGPGQVLICASDDRTCSQLRDYITLGAEAFLLRLYRKTFEKDSKAEEVWMKFRKEDSSKRIRKSHKRPKDPQNKERASTKERTLKKKKRKLTLTQMVGKPEELEEEGDVEEGYRREISSSPESCPEEIKHEEFDVNLSSDAAFGILKEPLTIIHPLLGCSDPYALTRVLHEVEPRYVVLYDAELTFVRQLEIYRASRPGKPLRVYFLIYGGSTEEQRYLTALRKEKEAFEKLIREKASMVVPEEREGRDETNLDLVRGTASADVSTDTRKAGGQEQNGTQQSIVVDMREFRSELPSLIHRRGIDIEPVTLEVGDYILTPEMCVERKSISDLIGSLNNGRLYSQCISMSRYYKRPVLLIEFDPSKPFSLTSRGALFQEISSNDISSKLTLLTLHFPRLRILWCPSPHATAELFEELKQSKPQPDAATALAITADSETLPESEKYNPGPQDFLLKMPGVNAKNCRSLMHHVKNIAELAALSQDELTSILGNAANAKQLYDFIHTSFAEVVSKGKGKK
With B1, the binding result is “binds”.
